Measured data: PubChem BioAssay AID1259254 (NCATS, 2017)
This is one part, drawn at random, of about 59,000 reagents. In the full data, about 1,550 (2.6%) are marked active. 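G2 share is only a proxy for re-replication; each gene was hit by three separate siRNAs, and active genes were retested.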 The raw values are shown without normalisation. A number with no mark means an inactive call. No sequences are given here. Not stated in the record: the amount of reagent.

Screen: 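Gene knock-downs that lead to re-replication, shown by excess G2 DNA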 (primary screen)
Cell system: human HCT116 colorectal cancer cells
Reagents: single siRNA against human genes
Time to read-out: 3 days
Measurement: 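Imaged Hoechst DNA stain sorts each cell into a cycle phase by DNA amount; per plate, G2 fraction set to 0% for non-targeting and 100% for GMNN siRNA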
Direction: G2 robust z-score and G2 cells, % of GMNN control: higher = more G2 cells, more excess DNA replication; raw share of cells in G2: higher = larger share of cells with G2 DNA content
Rule for the call: 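Active siRNAs have a G2 robust z of 5 or more median absolute deviations over the median, which in these data means about 38% or higher of GMNN control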

no.	gene knocked down	PubChem SID	G2 robust z-score	G2 cells, % of GMNN control	raw share of cells in G2 (%)
1	SLC25A3 (GeneID 5250)	SID160714239	-0.699	-1.95	3.72
2	SLC25A3 (GeneID 5250)	SID160714240	2.56	21	9.82
3	SLC25A3 (GeneID 5250)	SID160714241	0.413	5.87	6.71
4	TBCD (GeneID 6904)	SID160717735	3.69	28.9	17.9
5	TBCD (GeneID 6904)	SID160717736	2.38	19.7	11.7
6	TBCD (GeneID 6904)	SID160717737	-0.793	-2.61	2.42
7	GPIHBP1 (GeneID 338328)	SID160725066	-0.853	-3.03	1.93
8	GPIHBP1 (GeneID 338328)	SID160725067	-0.631	-1.47	3.6
9	GPIHBP1 (GeneID 338328)	SID160764017	2.49	20.5	11
10	RPS10 (GeneID 6204)	SID160716173	6.19 (active)	46.5	24.8
11	RPS10 (GeneID 6204)	SID160716174	3.63	28.5	15.5
12	RPS10 (GeneID 6204)	SID160716175	7.62 (active)	56.6	23.8
13	LINC00173 (GeneID 100287569)	SID160733305	-0.548	-0.889	4.42
14	LINC00173 (GeneID 100287569)	SID160766928	1.71	15	9.26
15	LINC00173 (GeneID 100287569)	SID160766929	0.672	7.69	6.57
16	CTSE (GeneID 1510)	SID160750586	3.83	29.9	16
17	CTSE (GeneID 1510)	SID160750597	-0.00247	2.95	5.95
18	CTSE (GeneID 1510)	SID160750608	-0.0726	2.46	4.83
19	ARHGEF12 (GeneID 23365)	SID160736115	-0.76	-2.38	5.41
20	ARHGEF12 (GeneID 23365)	SID160736117	1.21	11.5	7.99
21	ARHGEF12 (GeneID 23365)	SID160736118	-1.13	-4.96	2.17
22	ADAM30 (GeneID 11085)	SID160729914	4.83	36.9	18.4
23	ADAM30 (GeneID 11085)	SID160729915	-0.334	0.615	5.12
24	ADAM30 (GeneID 11085)	SID160729916	2.72	22.1	12.1
25	UVSSA (GeneID 57654)	SID160733676	3.3	26.2	11.3
26	UVSSA (GeneID 57654)	SID160746503	0.618	7.31	7.23
27	UVSSA (GeneID 57654)	SID160746504	-0.704	-1.98	3.51
28	DLEU7 (GeneID 220107)	SID160761494	1.4	12.8	8.24
29	DLEU7 (GeneID 220107)	SID160761495	0.033	3.2	4.23
30	DLEU7 (GeneID 220107)	SID160761496	-0.403	0.134	3.24

Looked up above:
Result of CTSE (GeneID 1510) [SID160750597] in “G2 robust z-score”: -0.00247
For “raw share of cells in G2 (%)”, TBCD (GeneID 6904) [SID160717736] shows 11.7
Under “raw share of cells in G2 (%)”, LINC00173 (GeneID 100287569) [SID160766928] is entered as 9.26
Under “G2 robust z-score”, RPS10 (GeneID 6204) [SID160716173] reads 6.19 (active)
